# From patent US20240365783A1, “HERBICIDAL MALONAMIDES” (BASF SE, priority 2021, published 2024)
# Some results were stated once for a whole list of compounds, not compound by compound. At least one compound was matched to its structure with a doubt left.
# Assays:
# Assay type in all cases: in vivo
# [1] = tested on: Alopercurus myosuroides (ALOMY); assay: greenhouse post-emergence herbicidal test, ALOMY; conditions: post-emergence method, application rate 0.250 kg/ha, scale from 0 to 100
# Excerpt: (§1) The culture containers used were plastic flowerpots containing loamy sand with approximately 3.0% of humus as the substrate. The seeds of the test plants were sown separately for each species.
# (§2) For the post-emergence treatment, the test plants were first grown to a height of 3 to 15 cm, depending on the plant habit, and only then treated with the active ingredients which had been suspended or emulsified in water. For this purpose, the test plants were either sown directly and grown in the same containers, or they were first grown separately as seedlings and transplanted into the test containers a few days prior to treatment.
# (§3) Depending on the species, the test plants were kept at 10-25° C. or 20-35° C., respectively.
# (§4) The test period extended over 2 to 4 weeks. During this time, the test plants were tended, and their response to the individual treatments was evaluated.
# (§5) Evaluation was carried out using a scale from 0 to 100. 100 means no emergence of the test plants, or complete destruction of at least the aerial moieties, and 0 means no damage, or normal course of growth. A good herbicidal activity is given at values of 70 to <90 and a very good herbicidal activity is given at values of 90 to 100.
# (§6) The test plants used in the greenhouse experiments were of the following species: […]
# Avena fatua (AVEFA) = assay: greenhouse post-emergence herbicidal test, AVEFA; conditions: post-emergence method, application rate 0.250 kg/ha, scale from 0 to 100
# Excerpt: as §1, §2, §3, §4, §5, §6
# Setaria faberi (SETFA) = assay: greenhouse pre-emergence herbicidal test, SETFA; conditions: pre-emergence method, application rate 0.250 kg/ha, scale from 0 to 100
# [2] = tested on: Amaranthus retroflexus (AMARE); assay: greenhouse pre-emergence herbicidal test, AMARE; conditions: pre-emergence method, application rate 0.250 kg/ha, scale from 0 to 100
# [3] = tested on: Echinocloa crus-galli (ECHCG); assay: greenhouse post-emergence herbicidal test, ECHCG; conditions: post-emergence method, application rate 0.250 kg/ha, scale from 0 to 100
# Setaria viridis (SETVI) = assay: greenhouse post-emergence herbicidal test, SETVI; conditions: post-emergence method, application rate 0.250 kg/ha, scale from 0 to 100
# Excerpt: as §1, §2, §3, §4, §5, §6
# [4] = tested on: Amaranthus retroflexus (AMARE); assay: greenhouse post-emergence herbicidal test, AMARE; conditions: post-emergence method, application rate 0.250 kg/ha, scale from 0 to 100
SMILES,herbicidal activity against ALOMY [1],herbicidal activity against AVEFA (Avena fatua (AVEFA)),other results
COC(=O)CCC(C)NC(=O)C(C)(C)C(=O)Nc1cccc(OC(F)(F)F)c1 (centres unmarked) [Compound 1.11],good (A good herbicidal activity is given at values of 70 to <90),good (A good herbicidal activity is given at values of 70 to <90),–
COC(=O)CCC(C)NC(=O)C(C)(C)C(=O)Nc1cccc(F)c1 (centres unmarked) [Compound 1.14],good (A good herbicidal activity is given at values of 70 to <90),good (A good herbicidal activity is given at values of 70 to <90),–
COC(=O)C[C@H](C)NC(=O)C(C)(C)C(=O)Nc1cccc(Cl)c1 [Compound 1.16],good (A good herbicidal activity is given at values of 70 to <90),good (A good herbicidal activity is given at values of 70 to <90),herbicidal activity against SETFA (Setaria faberi (SETFA)): good (A good herbicidal activity is given at values of 70 to <90)
COC(=O)CC(C)NC(=O)C(C)(C)C(=O)Nc1cccc(OC(F)(F)F)c1 (centres unmarked) [Compound 1.10],good (A good herbicidal activity is given at values of 70 to <90),good (A good herbicidal activity is given at values of 70 to <90),–
COC(=O)CCC(C)NC(=O)C(C)(C)C(=O)Nc1cccc(I)c1 (centres unmarked) [Compound 1.6],good (A good herbicidal activity is given at values of 70 to <90),good (A good herbicidal activity is given at values of 70 to <90),–
COC(=O)CC(C)NC(=O)C(C)(C)C(=O)Nc1cc(F)cc(Cl)c1 (centres unmarked) [Compound 1.17],–,good (A good herbicidal activity is given at values of 70 to <90),herbicidal activity against AMARE [2]: good (A good herbicidal activity is given at values of 70 to <90)
COC(=O)CCC(C)NC(=O)C(C)(C)C(=O)Nc1cc(F)cc(F)c1 (centres unmarked) [Compound 1.20],–,good (A good herbicidal activity is given at values of 70 to <90),herbicidal activity against SETFA (Setaria faberi (SETFA)): very good (a very good herbicidal activity is given at values of 90 to 100); herbicidal activity against ECHCG [3]: good (A good herbicidal activity is given at values of 70 to <90); herbicidal activity against SETVI (Setaria viridis (SETVI)): good (A good herbicidal activity is given at values of 70 to <90)
CCc1cccc(NC(=O)C(C)(C)C(=O)NC2C=CC(C(=O)OC)C2)c1 (centres unmarked) [Compound 1.7],–,–,herbicidal activity against SETFA (Setaria faberi (SETFA)): very good (a very good herbicidal activity is given at values of 90 to 100)
COC(=O)CCC(C)NC(=O)C(C)(C)C(=O)Nc1cc(Cl)cc(Cl)c1 (centres unmarked) [Compound 1.3],good (A good herbicidal activity is given at values of 70 to <90),very good (a very good herbicidal activity is given at values of 90 to 100),herbicidal activity against AMARE [4]: good (A good herbicidal activity is given at values of 70 to <90)
COC(=O)CCC(C)NC(=O)C(C)(C)C(=O)Nc1cc(F)cc(Cl)c1 (centres unmarked) [Compound 1.23],–,–,herbicidal activity against ECHCG [3]: good (A good herbicidal activity is given at values of 70 to <90); herbicidal activity against SETVI (Setaria viridis (SETVI)): good (A good herbicidal activity is given at values of 70 to <90)
CCc1cccc(NC(=O)C(C)(C)C(=O)NC(C)CCC(=O)OC)c1 (centres unmarked) [Compound 1.19],very good (a very good herbicidal activity is given at values of 90 to 100),very good (a very good herbicidal activity is given at values of 90 to 100),herbicidal activity against SETFA (Setaria faberi (SETFA)): good (A good herbicidal activity is given at values of 70 to <90)
COC(=O)CCC(C)NC(=O)C(C)(C)C(=O)Nc1cccc(Cl)c1 (centres unmarked) [Compound 1.22],very good (a very good herbicidal activity is given at values of 90 to 100),very good (a very good herbicidal activity is given at values of 90 to 100),herbicidal activity against SETVI (Setaria viridis (SETVI)): good (A good herbicidal activity is given at values of 70 to <90)
COC(=O)CC(C)NC(=O)C(C)(C)C(=O)Nc1cccc(I)c1 (centres unmarked) [Compound 1.5],–,good (A good herbicidal activity is given at values of 70 to <90),–
COC(=O)CC(C)NC(=O)C(C)(C)C(=O)Nc1cc(F)cc(F)c1 (centres unmarked) [Compound 1.21],good (A good herbicidal activity is given at values of 70 to <90),very good (a very good herbicidal activity is given at values of 90 to 100),–
